Test results taken from patent US20120308590A1, “IMP-3 OLIGOPEPTIDES AND VACCINES INCLUDING THE SAME” (OncoTherapy Science, Inc., priority 2009, published 2012).
Part of at least one peptide drawing is inferred or uncertain, most often the ends. Some compounds share one wording; it may come from a single statement. Residues, ends and D or L forms follow the SMILES beside them.

Tests used:
[1] = tested on: CD107a on the cell surface of CTLs; assay: CD107a exposure on the cell surface of CTLs (FACS); assay type: cell-based, human; conditions: for Expression of CD107a on CTLs: CTLs of healthy donor 1 or lung cancer patient 1, as compared with control (FIG. 3A)
Method: The exposure of CD107a on the cell surface of the CTLs after antigen stimulation was detected by anti-CD107a antibody. […] These CTLs were cultured for 5 hours at 37 degrees C. and were subsequently stained with PE conjugated anti-human CD8 mAb. All peptides were used at a final concentration of 1 microgram/ml. Events shown are gated for CD8^+ T cells.

[2] = tested on: T2 cells pulsed with cognate peptides; assay: IFN-gamma ELISPOT assay on peptide-induced human CTLs; assay type: cell-based
[3] = tested on: syngeneic BM-DCs pulsed with cognate peptides; assay: IFN-gamma ELISPOT assay on CTLs induced in HLA-A2 transgenic mice; assay type: in vivo, HLA-A2 (A*0201) transgenic (Tg) mice; conditions: HLA-A2 Tg mice immunized twice with peptide-pulsed BM-DCs; versus BM-DCs alone, P<0.05 (FIG. 1)
[4] = CTLs from PBMCs of healthy donor-1, versus T2 pulsed with irrelevant HIV peptide, P<0.05 (FIG. 2)

Compound	Expression of CD107a on CTLs [1]	IFN-gamma production by CTLs [2, 4]	IFN-gamma production by CTLs ([2]; CTLs from lung cancer patient 14, versus irrelevant HIV peptide, P<0.05 (FIG. 4A))	IFN-gamma production by CD4- spleen cells [3]	CD8+/CD107a+ cells of all CD8+ cells ([1]; CTLs specific to IMP-3-552-560 stimulated with the named peptide at 1 microgram/ml for 5 hours, mouse IgG staining 0.7%) [%]	IFN-gamma production by CTLs ([2]; CTLs from lung cancer patient 103, versus irrelevant HIV peptide, P<0.05 (FIG. 4A))
CC(C)C[C@H](NC(=O)[C@H](CC(C)C)NC(=O)[C@@H](N)CCCNC(=N)N)C(=O)N[C@H](C(=O)N1CCC[C@H]1C(=O)N[C@H](C(=O)N[C@@H](CCC(N)=O)C(=O)N[C@@H](Cc1ccccc1)C(=O)N[C@H](C(=O)O)C(C)C)[C@@H](C)O)C(C)C [SEQ ID NO: 1, RLLVPTQFV] (H-RLLVPTQFV-OH)	Expression of CD107a was detected	potent IFN-gamma production	–	–	–	–
CC[C@H](C)[C@H](NC(=O)[C@@H](N)CCCCN)C(=O)N1CCC[C@H]1C(=O)N[C@H](C(=O)N[C@@H](CO)C(=O)NCC(=O)N1CCC[C@H]1C(=O)N[C@@H](Cc1ccccc1)C(=O)N[C@@H](CC(C)C)C(=O)O)C(C)C [SEQ ID NO: 5, KIPVSGPFL] (H-KIPVSGPFL-OH)	–	potent IFN-gamma production	showed IFN-gamma production	produced IFN-gamma	–	–
CC[C@H](C)[C@H](NC(=O)[C@H](CCC(=O)O)NC(=O)[C@H](CCC(N)=O)NC(=O)[C@@H](NC(=O)[C@@H](N)CCCCN)[C@@H](C)CC)C(=O)N[C@@H](CC(C)C)C(=O)N[C@H](C(=O)N[C@@H](CCC(N)=O)C(=O)N[C@H](C(=O)O)C(C)C)[C@@H](C)O [SEQ ID NO: 3, KIQEILTQV] (H-KIQEILTQV-OH)	Expression of CD107a was detected	potent IFN-gamma production	–	produced IFN-gamma	5.7	–
CC(C)C[C@H](NC(=O)[C@@H](N)CC(N)=O)C(=O)N[C@@H](CO)C(=O)N[C@@H](CO)C(=O)N[C@@H](C)C(=O)N[C@@H](CCC(=O)O)C(=O)N[C@H](C(=O)N[C@H](C(=O)N[C@H](C(=O)O)C(C)C)C(C)C)C(C)C [SEQ ID NO: 6, NLSSAEVVV] (H-NLSSAEVVV-OH)	Expression of CD107a was detected	potent IFN-gamma production	–	produced IFN-gamma	–	showed IFN-gamma production
